According to patent publication US6943279B1, “Amino polyol amine oxidase polynucleotides and related polypeptides and methods of use” (priority 1999, dated 2005):
Some entries share one result that the patent states for a list of compounds. At least one structure is not confirmed: it was looked up by name or label, or the drawing left a doubt.

The compounds below were run on APAO enzyme. Conditions: similar conditions of time, pH, temperature, and substrate concentration.
Format: biochemical, Exophiala spinifera
Experimental: The following assay was used to determine the substrate specificity of the APAO enzyme. […] The APAO enzyme was recombinant enzyme produced,as GST fusion in E. coli, purified over a glutathione affinity column and cleaved with thrombin to remove the GST. All components were mixed at room temperature. The initial rate was determined in a spectrophotometer at 572 nm over one minute by absorbance units/second (BLANK). Ten microliters of APAO at 70 ug/ml was added and mixed. The initial rate was again determined at 572 nm over one minute in absorbance units/second (SAMPLE). The rates were converted to absorbance units/minute. The BLANK value was subtracted from the SAMPLE value. The absorbance units were converted to μM H2O2 wherein 1 μM H2O2 equals 0.138 absorbance units at pH 8.0.
`NCCCC[C@H](N)C(=O)O` [L-lysine] was tested, and the “conversion to hydrogen peroxide by APAO relative to AP1 (not substrates)” value was “less than 1%”.
In the case of `NCCCCNCCCN` [spermidine], the “conversion to hydrogen peroxide by APAO relative to AP1 (not substrates)” value is reported as “less than 1%”.
With `N[C@@H](Cc1c[nH]cn1)C(=O)O` [L-histidine] the “conversion to hydrogen peroxide by APAO relative to AP1 (not substrates)” value was “less than 1%”.
For `NCCc1c[nH]c2ccc(O)cc12` [serotonin], the “conversion to hydrogen peroxide by APAO relative to AP1 (not substrates)” value was “less than 1%”.
In the case of `N[C@@H](Cc1ccccc1)C(=O)O` [L-phenylalanine], the “conversion to hydrogen peroxide by APAO relative to AP1 (not substrates)” value is reported as “less than 1%”.
With `C#CCN(C)[C@H](C)Cc1ccccc1` [deprenyl] the “conversion to hydrogen peroxide by APAO relative to AP1 (not substrates)” value was “less than 1%”.
In the case of aprotinin, the “conversion to hydrogen peroxide by APAO relative to AP1 (not substrates)” value is reported as “less than 1%”.
`NNC(=O)c1ccncc1` [isoniazid] was tested, and the “conversion to hydrogen peroxide by APAO relative to AP1 (not substrates)” value was “less than 1%”.
`N[C@@H](CS)C(=O)O` [L-cysteine] was tested, and the “conversion to hydrogen peroxide by APAO relative to AP1 (not substrates)” value was “less than 1%”.
With `N[C@@H](CC(=O)O)C(=O)O` [L-aspartic acid] the “conversion to hydrogen peroxide by APAO relative to AP1 (not substrates)” value was “less than 1%”.
`NCCc1ccccc1` [2-phenylethylamine] was tested, and the “conversion to hydrogen peroxide by APAO relative to AP1 (not substrates)” value was “less than 1%”.
`NCCCN` [1,3-diaminopropane] was tested, and the “conversion to hydrogen peroxide by APAO relative to AP1 (not substrates)” value was “less than 1%”.
`CC(C)C[C@H](N)C(=O)O` [L-leucine] was tested, and the “conversion to hydrogen peroxide by APAO relative to AP1 (not substrates)” value was “less than 1%”.
With `N=C(N)c1ccccc1` [benzamidine] the “conversion to hydrogen peroxide by APAO relative to AP1 (not substrates)” value was “less than 1%”.
For `CC(N)C(=O)O` (racemic) [DL-alanine], the “conversion to hydrogen peroxide by APAO relative to AP1 (not substrates)” value was “less than 1%”.
With `N[C@H](CC(=O)O)C(=O)O` [D-aspartic acid] the “conversion to hydrogen peroxide by APAO relative to AP1 (not substrates)” value was “less than 1%”.
For `N[C@@H](Cc1ccc(O)cc1)C(=O)O` [L-tyrosine], the “conversion to hydrogen peroxide by APAO relative to AP1 (not substrates)” value was “less than 1%”.
`NCCCCCN` [cadaverine] was tested, and the “conversion to hydrogen peroxide by APAO relative to AP1 (not substrates)” value was “less than 1%”.
For `C[C@@H](N)C(=O)O` [D-alanine], the “conversion to hydrogen peroxide by APAO relative to AP1 (not substrates)” value was “less than 1%”.
`CCCCCCCCCCCCCC[C@@H](O)[C@@H](O)[C@@H](N)CO` [phytosphingosine] was tested, and the “conversion to hydrogen peroxide by APAO relative to AP1 (not substrates)” value was “less than 1%”.
`NCCc1c[nH]c2ccccc12` [tryptamine] was tested, and the “conversion to hydrogen peroxide by APAO relative to AP1 (not substrates)” value was “less than 1%”.
For `NC(=O)CC[C@H](N)C(=O)O` [L-glutamine], the “conversion to hydrogen peroxide by APAO relative to AP1 (not substrates)” value was “less than 1%”.
`CC(=O)N[C@@H](CC(C)C)C(=O)N[C@@H](CC(C)C)C(=O)N[C@H](C=O)CCCNC(=N)N` [leupeptin] was tested, and the “conversion to hydrogen peroxide by APAO relative to AP1 (not substrates)” value was “less than 1%”.
With `CC(C)[C@H](N)C(=O)O` [L-valine] the “conversion to hydrogen peroxide by APAO relative to AP1 (not substrates)” value was “less than 1%”.
In the case of `N[C@@H](Cc1c[nH]c2ccccc12)C(=O)O` [L-tryptophan], the “conversion to hydrogen peroxide by APAO relative to AP1 (not substrates)” value is reported as “less than 1%”.
For `Cl.NCCc1ccc(S(=O)(=O)F)cc1` [Pefabloc SC], the “conversion to hydrogen peroxide by APAO relative to AP1 (not substrates)” value was “less than 1%”.
With `CCCCCCCCCCCCCCC[C@@H](O)[C@@H](N)CO` [sphinganine] the “conversion to hydrogen peroxide by APAO relative to AP1 (not substrates)” value was “less than 1%”.
`CCCCCCCCCCCCC/C=C/[C@@H](O)[C@@H](N)CO` [sphingosine] was tested, and the “conversion to hydrogen peroxide by APAO relative to AP1 (not substrates)” value was “less than 1%”.
With `C[C@@H](O)[C@H](N)C(=O)O` [L-threonine] the “conversion to hydrogen peroxide by APAO relative to AP1 (not substrates)” value was “less than 1%”.
In the case of `NCCc1ccc(O)cc1` [tyramine], the “conversion to hydrogen peroxide by APAO relative to AP1 (not substrates)” value is reported as “less than 1%”.
`N=C(N)NCCC[C@H](N)C(=O)O` [L-arginine] was tested, and the “conversion to hydrogen peroxide by APAO relative to AP1 (not substrates)” value was “less than 1%”.
With `NC(=O)C[C@H](N)C(=O)O` [L-asparagine] the “conversion to hydrogen peroxide by APAO relative to AP1 (not substrates)” value was “less than 1%”.
For `N[C@@H](CCC(=O)O)C(=O)O` [L-glutamic acid], the “conversion to hydrogen peroxide by APAO relative to AP1 (not substrates)” value was “less than 1%”.
With `CC[C@H](C)[C@H](N)C(=O)O` [L-isoleucine] the “conversion to hydrogen peroxide by APAO relative to AP1 (not substrates)” value was “less than 1%”.
For `NO` [hydroxylamine], the “conversion to hydrogen peroxide by APAO relative to AP1 (not substrates)” value was “less than 1%”.
For `NCCCCC(N)C(=O)O` (racemic) [DL-lysine], the “conversion to hydrogen peroxide by APAO relative to AP1 (not substrates)” value was “less than 1%”.
With `CCCC[C@@H](C)[C@@H](OC(=O)C[C@@H](CC(=O)O)C(=O)O)[C@H](C[C@@H](C)CCCCCCCC[C@H](O)CN)OC(=O)C[C@@H](CC(=O)O)C(=O)O` [Fumonisin C4] the “conversion to hydrogen peroxide by APAO relative to AP1 (not substrates)” value was “less than 1%”.
